Among the data in US11898114B2, “Reactions and methods for producing fuels” (Alliance for Sustainable Energy, LLC, priority 2020, dated 2024) are Cetane number and YSI values, retold here.

Series [1] is described as follows: Indicated cetane number (AFIDA, ASTM D8183-18). Conditions: neat, measured.
Series [2] can be described thus: Yield sooting index (YSI), doped methane/air flame. The conditions noted are these: measured.
The conditions of series [3]: literature / database values; cited from earlier work.
The conditions of series [4]: literature values (Fioroni, et al.; Burger et al.); cited from earlier work.

The structures appear in SMILES notation. Where two headings read alike, the source gives them in different places. Marks after values point to notes of the source that are not given here.

Take `CCOCOCOCOCC` [EE-POME3]: the Cetane number in series [1] turned out to be 80.

Regarding `CC(C)CC(C)(C)C` [isooctane, Isooctane], the YSI in series [2] is on record as 63.6; in series [3], 61.7.

Regarding `CCCCCCC` [n-heptane], the YSI in series [3] is 36.0.

With `Cc1ccccc1` [toluene], in series [3], the YSI is recorded as 170.9.

For `COCOCOCOC` [MM-POME3], the Cetane number in series [4] is on record as 70*.

For `CCCCOCOCCCC` [BB-POME1, dibutoxymethane], the Cetane number in series [1] is reported as 70; in series [4], 67^$. For the same compound, the figures for the YSI in series [2] and in series [3] were 48 and 45^$, respectively.

With `COCOCOCOCOC` [MM-POME4], the Cetane number in series [4] was 90*.

On to `COCOCOC` [MM-POME2], for which the Cetane number in series [4] was 63*.
